40 molecules from publication PMC12040169 (PLOS Biology, 2025) can be followed below.

SMILES strings stand for the structures. This is one part of the list.

In this assay the test system is T1, CTL2-GFP (C. trachomatis L2/434/Bu, GFP-expressing).
T1 construct: L2/434/Bu, GFP-expressing
Also on record: species or system HeLa; Intracellular C. trachomatis growth in HeLa cells, bulk GFP fluorescence relative to DMSO. Conditions: bulk GFP, single well; 28.5 h, 10 µM; inhibitor.
In the case of `CC(=O)Nc1cccc(-c2cncc(N[C@H](CO)C(C)C)n2)c1` [CBK065475], the “% of control remaining” value is 92.2296%.

For `COc1ccc(Cn2ncnc2CC2CCNCC2)cc1` [CBK307071], the “% of control remaining” value is 142.567%.

With `c1ccc(-c2noc(CN3CCN(C(c4ccccc4)c4ccccc4)CC3)n2)cc1` [CBK265844], the “% of control remaining” value is 196.647%.

With `Cc1ccc(N(CC(=O)N/N=C/c2ccccc2)S(=O)(=O)c2ccccc2)cc1` [CBK262090], the “% of control remaining” value came to 117.091%.

In the case of `C=CCc1c(O)nc(SCC(=O)N2CCOCC2)[nH]c1=O` [CBK073301], the “% of control remaining” value worked out at 120.83%.

With `Nc1nc2c(cnn2[C@H]2C[C@@H](O)[C@@H](CO)O2)c(=O)[nH]1` [CBK201223], the “% of control remaining” value turned out to be 131.366%.

For `Cc1cc(C(F)(F)F)nn1CC(=O)Nc1sc2c(c1C#N)CCC(C)C2` (stereo not shown) [CBK304619], the “% of control remaining” value was found to be 130.614%.

`c1ccc(Oc2ccc(Nc3cccc(-c4ccc(N5CCOCC5)cc4)n3)cc2)cc1` [CBK036986]: the “% of control remaining” value was found to be 160.635%.

As to `Cc1csc(Sc2nccnc2NC(C)C)n1` [CBK115203], the “% of control remaining” value is recorded as 166.255%.

Take `Cn1c(COc2cncc(Cl)n2)cc2ccccc21` [CBK176002]: the “% of control remaining” value is given as 104.403%.

As for `O=c1[nH]c2ncc(-c3ccccc3)nc2n1CCCN1CCOCC1` [CBK064805], the “% of control remaining” value is 101.026%.

As to `c1ccc(Nc2nccc(C3CCCN(Cc4ccc5[nH]ccc5c4)C3)n2)nc1` (stereo not shown) [CBK286093], the “% of control remaining” value is on record as 126.053%.

Regarding `O=C1NC2=C(C(=O)N(CCN3CCCC3)C2)C(c2ccccc2)N1` (stereo not shown) [CBK283493], the “% of control remaining” value is 118.252%.

On to `CN1CCC(=NNC(=O)c2ccc(N(Cc3ccccc3)S(C)(=O)=O)cc2)CC1` [CBK262742], for which the “% of control remaining” value is given as 120.727%.

On to `Cn1c(SCC(=O)Nc2ccc(Oc3ccc(Cl)cc3)cc2)nnc1-c1ccncc1` [CBK269654], for which the “% of control remaining” value is recorded as 120.087%.

Turning to `COc1ccccc1C(=O)Nc1nc2ccc(NC(C)=O)cc2s1` [CBK287303], the “% of control remaining” value came to 148.776%.

As for `O=C(Nc1[nH]nc(O)c1Cc1c(Cl)cccc1Cl)C1CCCCC1` [CBK084558], the “% of control remaining” value is 126.262%.

For `c1cnc(NCc2cc3n(n2)CCN(CC2CCCCO2)C3)cn1` (stereo not shown) [CBK306891], the “% of control remaining” value is on record as 143.948%.

`OC1(c2cccnc2)C2CCCC1CN(Cc1ccc(F)cc1)C2` (stereo not shown) [CBK285204]: the “% of control remaining” value was 83.6568%.

As for `COC(=O)c1nc(Cl)c(Cl)nc1NS(=O)(=O)c1cccc(Cl)c1C` [CBK004709], the “% of control remaining” value is 117.527%.

Consider `NC(=O)C1(Cc2cccc(-c3cccs3)c2)CCN(C(=O)Cc2ccccc2)CC1` [CBK286272], for which the “% of control remaining” value worked out at 149.462%.

Regarding `CC(=O)NCCNC(=O)c1ccc(-c2ccccc2)nc1NCCc1ccccn1` [CBK076595], the “% of control remaining” value is on record as 125.165%.

`Cc1ccc(NC(=O)Cn2cnc3c(=O)n(C)c(=O)n(C)c32)c(O)c1` [CBK267002]: the “% of control remaining” value is 142.334%.

With `CN(CC(=O)O)C(=O)c1ccc(Oc2cccc(Br)c2)nc1` [CBK306485], the “% of control remaining” value is given as 106.566%.

For the molecule `Cc1cccc(CN2CCC(NC(=O)c3cccc4nn[nH]c34)CC2)c1` [CBK305411], the “% of control remaining” value is 110.813%.

Regarding `Cc1ccc2c(c1)CCCN2C(=O)c1cccnc1NCc1ccc2c(c1)OCO2` [CBK160113], the “% of control remaining” value was 88.7399%.

For the molecule `Cc1cc(COC(=O)N2CCCC(C(F)(F)F)C2)cc(C)n1` (stereo not shown) [CBK200150], the “% of control remaining” value came to 130.683%.

On to `Cc1cc2nc(-c3ccccn3)[nH]c2cc1C` [CBK000122], for which the “% of control remaining” value was determined as 0%.

As for `Cc1noc(C)c1C(=O)N1CCN(c2ccccc2)CC1` [CBK200165], the “% of control remaining” value is reported as 99.9761%.

On to `O=C1Nc2c(cnn2-c2ccccc2Cl)C2=NCCCN12` [CBK283331], for which the “% of control remaining” value is on record as 141.195%.

`COc1ccc(O)c(CN2CCC(N3CCCCC3)CC2)c1` [CBK261849]: the “% of control remaining” value is reported as 110.162%.

For the molecule `CC(C)n1nccc1C(=O)NCC(c1ccc(F)cc1)N1CCCC1` (stereo not shown) [CBK283025], the “% of control remaining” value is 122.884%.

Turning to `NC(=O)c1cc(-c2ccccc2)sc1NC(=O)C(Cc1ccccc1)N1C(=O)c2ccccc2C1=O` (stereo not shown) [CBK265843], the “% of control remaining” value is recorded as 155.826%.

Take `O=C(c1ccccc1F)N1C[C@H](c2ccsc2)[C@H]2CN(Cc3ccccc3)CC[C@H]21` [CBK285655]: the “% of control remaining” value came to 81.2551%.

`CC(=O)Nc1ccc(CNC(=O)c2cccnc2O)cc1` [CBK304559]: the “% of control remaining” value is on record as 92.7322%.

Turning to `CCc1ccc(C2=CC(c3cccc(C)c3)n3nnnc3N2)cc1` (stereo not shown) [CBK268095], the “% of control remaining” value stood at 100.42%.

Consider `CN(C)CCCNC(=O)c1cc2c(n(-c3ccc(Cl)c(Cl)c3)c1=O)CC(C)(C)CC2=O` [CBK293952], for which the “% of control remaining” value was found to be 159.981%.

As to `c1ncc(OC2CCN(CCN3CCOCC3)C2)nc1OCCN1CCOCC1` (stereo not shown) [CBK084492], the “% of control remaining” value worked out at 102.149%.

With `COCCn1nnnc1C(c1cc2cc(C)cc(C)c2[nH]c1=O)N1CCOCC1` (stereo not shown) [CBK068815], the “% of control remaining” value came to 114.328%.

`COc1ccc(NC2=NN(c3ccccc3)C(=O)C2)cc1` [CBK288085]: the “% of control remaining” value turned out to be 106.135%.
